Test results: publication doi:10.1101/199034 (bioRxiv, 2017)
No constants are given. Whether binding was seen depends on the method and setting. Binding calls can cover weak binding; strength is not graded here.

Protein sequences, listed by entry. Tags and fused reporters are not part of them. Lines headed by an entry give the natural chain unless they say otherwise; changes in a name come on top.
UniProt Q14654: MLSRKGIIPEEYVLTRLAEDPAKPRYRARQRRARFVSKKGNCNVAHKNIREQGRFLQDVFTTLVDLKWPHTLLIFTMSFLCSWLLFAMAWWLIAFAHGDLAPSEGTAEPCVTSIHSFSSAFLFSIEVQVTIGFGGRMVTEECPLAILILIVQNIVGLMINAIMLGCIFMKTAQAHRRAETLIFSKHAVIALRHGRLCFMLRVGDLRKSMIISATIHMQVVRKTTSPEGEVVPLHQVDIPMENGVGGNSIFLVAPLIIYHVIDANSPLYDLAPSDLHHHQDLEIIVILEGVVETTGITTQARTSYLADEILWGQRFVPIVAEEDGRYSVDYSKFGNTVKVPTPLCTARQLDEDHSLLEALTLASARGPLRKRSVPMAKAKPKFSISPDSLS
UniProt Q09428: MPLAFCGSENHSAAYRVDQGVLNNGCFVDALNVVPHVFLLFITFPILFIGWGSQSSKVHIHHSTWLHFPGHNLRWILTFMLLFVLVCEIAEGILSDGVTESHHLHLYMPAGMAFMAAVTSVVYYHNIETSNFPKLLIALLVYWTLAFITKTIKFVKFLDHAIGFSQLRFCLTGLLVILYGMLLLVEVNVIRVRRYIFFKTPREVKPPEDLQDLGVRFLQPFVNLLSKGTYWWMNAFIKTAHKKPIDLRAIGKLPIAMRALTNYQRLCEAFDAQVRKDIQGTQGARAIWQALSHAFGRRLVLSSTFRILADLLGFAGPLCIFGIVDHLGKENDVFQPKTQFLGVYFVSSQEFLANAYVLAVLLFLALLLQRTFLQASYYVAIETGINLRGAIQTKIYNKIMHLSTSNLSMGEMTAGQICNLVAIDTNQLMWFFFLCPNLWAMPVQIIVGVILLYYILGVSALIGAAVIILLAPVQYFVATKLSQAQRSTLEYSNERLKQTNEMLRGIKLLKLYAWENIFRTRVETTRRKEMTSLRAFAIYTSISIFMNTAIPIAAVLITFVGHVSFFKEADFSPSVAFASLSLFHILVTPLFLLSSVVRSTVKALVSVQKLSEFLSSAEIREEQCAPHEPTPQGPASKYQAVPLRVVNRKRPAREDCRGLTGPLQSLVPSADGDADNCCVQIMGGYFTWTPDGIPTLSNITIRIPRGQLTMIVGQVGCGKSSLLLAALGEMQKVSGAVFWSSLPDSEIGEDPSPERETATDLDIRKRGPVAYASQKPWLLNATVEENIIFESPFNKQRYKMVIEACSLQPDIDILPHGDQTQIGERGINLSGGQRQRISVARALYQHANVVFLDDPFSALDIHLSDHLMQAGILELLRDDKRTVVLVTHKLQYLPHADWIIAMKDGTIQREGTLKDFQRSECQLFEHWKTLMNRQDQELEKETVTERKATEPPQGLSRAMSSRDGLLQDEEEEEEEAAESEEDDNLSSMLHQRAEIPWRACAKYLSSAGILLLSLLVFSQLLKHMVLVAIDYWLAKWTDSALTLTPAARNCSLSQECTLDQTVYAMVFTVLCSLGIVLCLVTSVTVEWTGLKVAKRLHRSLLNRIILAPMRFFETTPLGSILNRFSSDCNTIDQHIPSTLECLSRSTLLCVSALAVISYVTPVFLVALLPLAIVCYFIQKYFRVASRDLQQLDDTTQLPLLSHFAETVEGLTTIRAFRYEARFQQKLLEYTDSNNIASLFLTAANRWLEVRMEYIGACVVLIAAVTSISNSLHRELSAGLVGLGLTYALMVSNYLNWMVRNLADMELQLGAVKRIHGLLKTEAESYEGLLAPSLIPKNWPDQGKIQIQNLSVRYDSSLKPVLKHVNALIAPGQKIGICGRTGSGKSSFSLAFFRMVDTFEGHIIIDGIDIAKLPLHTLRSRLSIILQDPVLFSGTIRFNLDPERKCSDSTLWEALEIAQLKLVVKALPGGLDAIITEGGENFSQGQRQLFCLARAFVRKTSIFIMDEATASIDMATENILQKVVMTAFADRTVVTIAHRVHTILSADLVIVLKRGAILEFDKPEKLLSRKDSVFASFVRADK

Molecular target: human Kir6.2 (human) (UniProt Q14654)
Test: cryo-EM structure

## human SUR1 (sulphonylurea receptor 1) (from UniProt Q09428)
  binding: binds
